Measurements published in PMC6046124.
No constants are given. Whether binding was seen depends on the method and setting. In cells and extracts the contact can be indirect. Some results given as binding are weak or reduced against the parent protein; the word gives no strength.

Protein sequences, listed by entry. Tags and fused reporters are not part of them.
UniProt Q9Z2L0: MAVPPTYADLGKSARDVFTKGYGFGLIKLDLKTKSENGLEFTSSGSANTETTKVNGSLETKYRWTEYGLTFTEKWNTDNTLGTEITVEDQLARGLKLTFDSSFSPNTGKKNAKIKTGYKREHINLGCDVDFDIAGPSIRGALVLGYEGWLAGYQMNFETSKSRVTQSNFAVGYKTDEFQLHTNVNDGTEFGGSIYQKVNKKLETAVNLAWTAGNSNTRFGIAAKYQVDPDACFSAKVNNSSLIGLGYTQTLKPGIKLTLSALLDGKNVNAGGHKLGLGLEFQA
UniProt P49950: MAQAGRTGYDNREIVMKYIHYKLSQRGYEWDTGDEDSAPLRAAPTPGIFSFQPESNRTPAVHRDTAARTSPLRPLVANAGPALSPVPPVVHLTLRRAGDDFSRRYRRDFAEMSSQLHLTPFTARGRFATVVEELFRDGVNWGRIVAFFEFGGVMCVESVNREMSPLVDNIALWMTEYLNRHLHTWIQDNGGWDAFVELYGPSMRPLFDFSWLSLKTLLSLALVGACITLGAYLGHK

Columns and labels:
[1] = target: T1, 14-3-3η (rat (endogenous in H9c2)) (UniProt P68511); assay: co-IP; RIPA lysate of H9c2 cells pretreated with TSN for 2 days before A/R injury; immunoprecipitated with anti-14-3-3η, anti-Bcl-2 or anti-VDAC-1 overnight at 4°C, protein A/G plus beads; immunoblotted with anti-Bcl-2 and anti-VDAC-1
T1 sequence: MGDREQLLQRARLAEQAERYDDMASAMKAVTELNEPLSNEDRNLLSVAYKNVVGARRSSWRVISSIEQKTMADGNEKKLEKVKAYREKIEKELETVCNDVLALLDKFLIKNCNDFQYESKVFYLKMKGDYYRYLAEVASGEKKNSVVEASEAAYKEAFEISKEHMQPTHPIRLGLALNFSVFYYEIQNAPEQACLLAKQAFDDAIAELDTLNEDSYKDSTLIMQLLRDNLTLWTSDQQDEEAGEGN

[2] = target: voltage-dependent anion channel 1 (rat (endogenous in H9c2)) (UniProt Q9Z2L0); assay: as above

Substance	binding [1]	binding [2]
voltage-dependent anion channel 1 (from UniProt Q9Z2L0 1-283)	binds	
Bcl-2 (from UniProt P49950 1-236)	binds	binds
